Test results taken from article doi:10.1101/2021.07.08.451629.
No constants are given. Whether binding was seen depends on the method and setting. Binding seen in cells or lysates may run through a third protein. Some results given as binding are weak or reduced against the parent protein; the word gives no strength. Sequences can lack the tags named with a protein.

Protein sequences, listed by entry. Tags and fused reporters are not part of them.
UniProt Q8C1W1: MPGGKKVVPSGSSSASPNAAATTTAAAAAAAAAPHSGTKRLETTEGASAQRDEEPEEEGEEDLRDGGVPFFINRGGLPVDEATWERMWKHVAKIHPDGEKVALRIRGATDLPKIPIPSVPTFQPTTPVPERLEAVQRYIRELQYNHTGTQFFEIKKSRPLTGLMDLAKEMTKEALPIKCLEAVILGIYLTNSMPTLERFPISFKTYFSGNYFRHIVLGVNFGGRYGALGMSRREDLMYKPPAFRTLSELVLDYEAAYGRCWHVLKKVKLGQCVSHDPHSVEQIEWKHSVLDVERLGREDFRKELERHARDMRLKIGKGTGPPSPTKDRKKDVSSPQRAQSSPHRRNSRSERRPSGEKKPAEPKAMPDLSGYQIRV

Molecular target: T1, SVBP-myc (small vasohibin binding protein) (UniProt Q99LQ4)
T1 sequence: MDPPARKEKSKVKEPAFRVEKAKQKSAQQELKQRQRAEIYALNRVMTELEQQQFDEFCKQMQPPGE
Assay: co-IP

## flag-vash1-GFP (mouse vasohibin 1) (from UniProt Q8C1W1 1-375) (enzyme)
  binding: binds
